Among all 1,200 compounds or so, fewer than 10 were called active.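 Rule for the calls: active = inhibition reaching a set limit at one or more tested concentrations; inactive = inhibition under that limit at every dose.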 The list shows a part of the results. Potency and affinity values are given separately.

This assay in a line: yeast RAM network inhibitors, dose response, S. cerevisiae (AID 1307).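 Note: 0% = DMSO vehicle wells and 100% = 10 µM 1-NA-PP1 control; higher inhibition means more yeast growth since RAM block rescues cells from 5-FOA.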 To be noted: S. cerevisiae RAM network URA3 reporter, 5-FOA growth OD615, active compounds read high, yeast express analog-sensitive mutant Cbk1 kinase; at 100 µM unless noted.
Turning to `Cc1ccc(-c2cc(C(F)F)nc(N3CCC(C)CC3)n2)cc1`, the max inhibition is inactive: 3.53%.
Regarding `CCOc1cc(CNc2ccc(CNc3ncn[nH]3)cc2)ccc1OCc1ccccc1`, the max inhibition was inactive: 4.47%.
Regarding `CCCCCC(=O)O[C@]1(C(C)=O)CC[C@H]2[C@@H]3CCC4=CC(=O)CC[C@]4(C)[C@H]3CC[C@@]21C`, the max inhibition is inactive: 5.66%.
Take `O=C(NC(=S)Nc1ccc(Oc2ccccc2)cc1)c1ccc(Cl)cc1`: the max inhibition was inactive: 2.56% [at 25 µM].
With `CCCn1c(=O)c(C(=O)Nc2ccccc2C(=O)OCC)c(O)c2ccccc21`, the max inhibition is inactive: 2.64% [at 50 µM].
Next, `O=C(/C=C/c1ccccc1)n1cnnc1SC/C=C/c1ccccc1`: inactive: 6.12% [at 50 µM].
With `Cc1ccc(SCC(=O)Nc2ccc(F)cc2[N+](=O)[O-])cc1C`, the max inhibition was inactive: 2.24%.
Next, `CC(C)COC(=O)/C(C#N)=C/c1cn(Cc2ccccc2)c2ccccc12`: inactive: 7.49%.
For the molecule `Cc1cc(Cl)ccc1OCC(=O)N/N=C1\CCCc2ccccc21`, the max inhibition is inactive: 1.96% [at 1.563 µM].
Next, `CCCCCCN1C=C/C(=C\C=C(C#N)C#N)c2ccccc21`: inactive: 8.82%; `CCOc1ccc(CN(Cc2ccco2)C(c2cccs2)c2nnnn2C(C)(C)C)cc1` (stereo unspecified): inactive: 4.47%.
Consider `N#CCCCSc1nnc(-c2ccc(Cl)cc2)n1-c1ccccc1`, for which the max inhibition is inactive: 2.29% [at 12.5 µM].
Turning to `Clc1ccc(CSc2nnc(/C=C/c3ccccc3)o2)cc1`, the max inhibition was inactive: 2.78% [at 25 µM].
Next, `CN(Cc1ccccc1)C(=O)c1[nH]cnc1C(=O)N[C@@H](Cc1ccccc1)C(=O)OCc1ccccc1`: inactive: 3.63%.
Consider `Cc1ccc(S(=O)(=O)N(CCC(=O)Nc2ccc(OC(F)(F)F)cc2)c2ccccc2)cc1`, for which the max inhibition is inactive: 3.34% [at 1.563 µM].
With `CCOc1ccc(S(=O)(=O)Nc2nc3ccc(OC)cc3s2)cc1`, the max inhibition is inactive: 8.78%.
Next, `COc1ccc2c(c1)C(=O)/C(=C/C=C/c1ccccc1)CC2`: inactive: 5.66%; `O=C(Cc1cccs1)N1CCN(c2nc(-c3ccc(Cl)cc3)cs2)CC1`: inactive: 2.85% [at 3.125 µM]; `CN(C)c1ccc(N=Nc2ccccc2C(=O)OCC(=O)Nc2ccccc2C(F)(F)F)cc1`: inactive: 3.49% [at 1.563 µM].
As to `O=C(/C=C/c1ccc(OCc2ccccc2)c(OCc2ccccc2)c1)c1cccnc1`, the max inhibition was inactive: 3.78%.
Take `COc1cc(NC(=O)c2ccc3c(c2)OCO3)c2ncccc2c1`: the max inhibition was inactive: 4.22%.
Take `O=C(c1ccccc1)N(Cc1cccnc1)C1(C(=O)Nc2ccccc2)CCCCC1`: the max inhibition is inactive: 4.13% [at 1.563 µM].
For the molecule `COc1ccc(/C=C/C(=O)OCc2csc(-c3ccccc3)n2)cc1OC`, the max inhibition was inactive: 1.41% [at 0.782 µM].
Next, `Cc1ccccc1OCCNc1cc(N2CCCCC2)ccc1[N+](=O)[O-]`: inactive: 3.77% [at 50 µM]; `CCCCSc1nnc([C@H](CC(C)C)NC(=O)OC(C)(C)C)o1`: inactive: 1.2% [at 0.196 µM]; `COc1ccc(C)cc1NC(=O)C(Sc1ccccc1)c1ccccc1` (stereo unspecified): inactive: 4.13%.
Next, `N#Cc1ccc(CSc2nnc(-c3c[nH]c4ccccc34)n2-c2ccccc2)cc1`: inactive: 1.95% [at 0.391 µM]; `O=c1c2ccccc2c(-c2ccccc2)nn1Cc1ccc(Cl)cc1`: inactive: 2.43% [at 0.196 µM]; `C=CCN1C(=O)C(Cc2cccc(C)c2)SC1=Nc1ccc(C(=O)O)cc1` (stereo unspecified): inactive: 2.7% [at 0.782 µM].
Next, `Cc1ccc(C(=O)n2nc(-c3ccccc3)nc2NCc2ccco2)cc1`: inactive: 2.13%; `Cc1ccc(NC(=O)c2cc(S(=O)(=O)NCCC3=CCCCC3)ccc2F)cc1`: inactive: 3.41%; `Cc1ccc(-c2csc(N(CC3CCCO3)C(=O)c3ccco3)n2)cc1` (stereo unspecified): inactive: 1.93% [at 12.5 µM].
Take `O=[N+]([O-])c1ccc(C2Nc3cccc4cccc(c34)N2)cc1`: the max inhibition is inactive: 5.54%.
Next, `CN(c1ccccc1)c1ccc(/C=c2\s/c(=C(/C#N)C(=O)C(C)(C)C)n(Cc3ccco3)c2=O)cc1`: inactive: 9.12%; `COc1ccc(C(=O)/C=C/c2ccc(N3CCCCC3)c([N+](=O)[O-])c2)c(OC)c1`: inactive: 7.06% [at 50 µM]; `COc1ccc(/C=C(\NC(=O)c2ccc(OCC(C)C)cc2)C(=O)OCc2ccco2)cc1`: inactive: 2.11%.
`Cc1cc(C)cc(NC(=O)CSCc2cnn(-c3ccccc3)c2-n2cccc2)c1`: the max inhibition was inactive: 7.76%.
Next, `S=C(NCCC(c1ccccc1)c1ccccc1)Nc1ccccc1Cl`: inactive: 2.81%; `CC(C)CNC(=O)c1ccccc1NC(=O)c1ccc(CSc2ccccc2)cc1`: inactive: 3.8% [at 12.5 µM].
Next, `CCCC(CCC)=NNc1ccc(S(=O)(=O)Nc2ccccc2OC)cc1[N+](=O)[O-]`: inactive: 3.78% [at 0.391 µM].
`O=c1c2ccccc2nc(SCc2cccc(F)c2)n1Cc1ccco1`: the max inhibition is inactive: 5.29% [at 50 µM].
Next, `CCC(C(=O)OCC(=O)Nc1c(Cl)cc(Cl)cc1Cl)c1ccccc1` (stereo unspecified): inactive: 3.02% [at 0.782 µM]; `COc1ccc(-c2ccc(-c3noc(-c4ccccc4)n3)c(OC)n2)cc1`: inactive: 3.85% [at 50 µM]; `CCN(CC)S(=O)(=O)c1cccc(-c2nnc(SC(C)C(=O)NCCC3=CCCCC3)o2)c1` (stereo unspecified): inactive: 2.79% [at 25 µM].
Next, `CCOc1cc(NC(=O)c2ccccn2)c(OCC)cc1NC(=O)c1ccc(C)cc1`: inactive: 7.44%; `O=C1CCC(/C=C/c2ccccc2)=NN1Cc1ccc(Cl)c(Cl)c1`: inactive: 3.06%; `COc1cc(CNn2c(C)n[nH]c2=S)cc(Cl)c1OCc1ccccc1`: inactive: 2.51% [at 25 µM].
As for `CCOC(=O)c1[nH]cnc1N=Nc1c(O)ccc2ccccc12`, the max inhibition is inactive: 16.7%.
Regarding `O=C(Nc1cccc(C(F)(F)F)c1)C1CCCCC1`, the max inhibition was inactive: 3.33% [at 3.125 µM].
As to `O=C(Nc1ccn(Cc2cccc3ccccc23)n1)c1cccnc1`, the max inhibition is inactive: 3.63%.
Next, `Cc1ccc(/C=C/c2ccc(=O)n(Cc3ccccc3Cl)n2)cc1`: inactive: 3.92% [at 3.125 µM]; `O=C(c1ccc(C(F)(F)F)cc1)N1CCC(=O)N(C(COCc2ccccc2)Cc2ccccc2)CC1` (stereo unspecified): inactive: 2.82%.
With `CC(C)Oc1cccc(C(=O)NC(=S)Nc2cccc(C(F)(F)F)c2)c1`, the max inhibition was inactive: 2.41% [at 0.782 µM].
Regarding `CC(=O)c1ccc(OCc2ccc(Oc3c(Cl)cccc3[N+](=O)[O-])cc2)cc1`, the max inhibition is inactive: 2.72%.
In the case of `COc1ccc(OC)c(NC(=O)C(Sc2ccccc2)c2ccccc2)c1` (stereo unspecified), the max inhibition is inactive: 4.44% [at 50 µM].
For the molecule `COc1ccc(-c2csc(NCc3ccco3)n2)cc1C`, the max inhibition is inactive: 4.8% [at 50 µM].
As to `CC(=O)OCCCNc1cc(Sc2ccc(Cl)cc2)c2nonc2c1[N+](=O)[O-]`, the max inhibition was inactive: 10.4%.
Next, `COc1cc(/C=N/Nc2ccc(Cl)cc2)ccc1OC(=O)c1cccs1`: inactive: 2.6% [at 0.391 µM].
Next, `Cc1ccccc1OCC(=O)OCC(=O)c1ccc(-c2ccccc2)cc1`: inactive: 7.96%; `CCCCOc1ccc(S(=O)(=O)Nc2cc(OC)ccc2OC)cc1`: inactive: 3.71% [at 25 µM]; `CCOCCCNC(=S)N1CCCN(c2nc3cc(C)c(C)cc3cc2C#N)CC1`: inactive: 1.76% [at 0.391 µM].
Next, `CCC1CCCCN1S(=O)(=O)c1ccc(S(=O)(=O)N(Cc2cccs2)C2CC2)cc1` (stereo unspecified): inactive: 2.14% [at 3.125 µM].
Regarding `Cn1nc(C(F)(F)F)c(/C=N/OC(=O)c2ccccc2)c1SCc1ccc(Cl)cc1`, the max inhibition was inactive: 2.75% [at 25 µM].
Next, `COc1cc(/C=C/c2cc(C(=O)O)c3ccccc3n2)cc(OC)c1O`: inactive: 8.74%.
Next, `Cc1cc(NC(=O)CCSc2ccccc2)ccc1Br`: inactive: 1.17% [at 0.782 µM]; `O=C(CCc1ccc(CCC(=O)c2cccs2)s1)c1cccs1`: inactive: 2.46% [at 0.782 µM]; `Cc1c(C(=O)N2CCc3ccccc3C2)oc2ccc(S(=O)(=O)N3CC(C)CC(C)C3)cc12` (stereo unspecified): inactive: 7.67%.
Next, `O=C(CSc1ccc(Br)cc1)Nc1ccccc1Oc1ccccc1`: inactive: 3.77% [at 0.196 µM]; `Cc1noc(NS(=O)(=O)c2ccc(N/C=C\C(=O)c3ccc(Br)cc3)cc2)c1C`: inactive: 7.53%; `C=CCn1c(C)cc(C(=O)CSc2nnc(NCc3ccccc3)s2)c1C`: inactive: 1.92% [at 0.196 µM].
As for `O=C(COC(=O)c1ccc(CSc2ccc(Cl)cc2)cc1)Nc1ccccc1`, the max inhibition is inactive: 4.59%.
Next, `CCc1ccccc1NC(=O)/C(C#N)=C/c1ccc(Sc2ccccc2)o1`: inactive: 2.64% [at 0.196 µM].
In the case of `Fc1ccc(C2CC(c3cccs3)=NN2c2ccccc2)cc1` (stereo unspecified), the max inhibition was inactive: 2.58%.
Turning to `Cc1ccc(/C=C2/Sc3ccccc3N(CC(=O)NCCCOC(C)C)C2=O)cc1`, the max inhibition was inactive: 8.03%.
Next, `COc1cc(NC(=O)CSCc2cnn(-c3ccccc3)c2-n2cccc2)cc(OC)c1`: inactive: 2.62% [at 0.196 µM]; `Cc1ccc(S(=O)(=O)N(CCCO)CC(O)CON=C2c3ccccc3-c3ccccc32)cc1` (stereo unspecified): inactive: 3.7%; `Cc1cc(C)cc(NC(=S)NCCSc2ccc(Cl)cc2)c1`: inactive: 2.24%.
Next, `O=C(CSc1nnc(-c2ccc(Cl)s2)o1)N1CCCc2ccccc21`: inactive: 2.39% [at 6.25 µM]; `CCOc1cccc(-c2csc(C3COc4ccccc4O3)n2)c1` (stereo unspecified): inactive: 5.04% [at 50 µM].
Turning to `COCCNC(=O)c1c(N)n(-c2ccccc2)c2nc3ccccc3nc12`, the max inhibition is inactive: 11.3%.
Next, `COc1ccc(OC)c(/C=C/C(=O)c2ccc(Cl)cc2)c1`: inactive: 4.87% [at 50 µM].

Source of the values: PubChem BioAssay AID1307 (SRMLSC, 2008).
